Results: PubChem BioAssay AID1347075 (National Center for Advancing Translational Sciences (NCATS), 2019)
“And” between values parts separate entries of the source, which are not always exact repeats. Identical values can stand only once. Among all 400,000 compounds or so, about 5,500 (1.4%) were called active. Inconclusive results, whose numbers are uncertain, are shown with a selection of clear calls. Calls come from the whole dose curve; as a rule, active = well fitted cell-killing curve with a large enough effect; inconclusive = small, poorly fitted or top-dose-only effect, or effect the other way; inactive = flat fitted curve, though single readings scatter. Where the call is inconclusive, the potency comes from a doubtful curve fit.
% is set by controls: 0 for no effect and ±100 for the full control effect; potency is the fitted concentration of half-maximal effect.

Assay: qHTS assay for MDR1-selective chemotherapeutics: Primary screen using the parental adenocarcinoma cell KB-3-1; note: nearly all actives have a fitted effect of over 60% in size
Details: KB-3-1 viability, CellTiter-Glo ATP luminescence, 72 h; activity change, negative = cytotoxic: at 46.1 µM (top of the series)
Summary of the method: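 Screening of KB-3-1 cells (DMEM, 10% FBS, phenol-red free) ran from lowest to highest compound concentration; after 72 h at 37 °C viability was read luminescently and curves fitted.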
In the case of `CN(C)CCCNc1ncnc2sc(-c3ccccc3)cc12`, the Potency is reported as inconclusive: 18.4 µM [cytotoxic, partial curve, poor fit].
In the case of `CCCCCCCCC(=O)N1C(C)CCC1C` (stereo not drawn), the Potency is reported as inconclusive: 5.17 µM [rising, partial curve, poor fit].
For `Cc1ccnc2ccc3ccccc3c12`, the Potency was active: 8.2 µM.
With `Nc1c(C(=O)NCc2ccco2)nnn1CC(=O)Nc1ccccc1` the “activity change, negative = cytotoxic” value was inactive: 2.08%.
For `Cc1ccc(-c2nc3ccc(Br)cn3c2Cc2ccccc2C(F)(F)F)cc1`, the Potency was inconclusive: 29.1 µM [cytotoxic, single point].
For `OC(CNCc1ccc(F)cc1)(c1ccccc1)c1ccc(F)cc1` (stereo not drawn), the Potency was inconclusive: 20.6 µM [cytotoxic, single point].
For `C/C=C/C=C\C(=O)Nc1cccc(C2=NOC3(C2)C[C@H](C(N)=O)N(C(=O)CC#N)C3)c1` (stereo partly drawn), the Potency was inconclusive: 14.6 µM [rising, partial curve, poor fit].
With `O=C(CN1C(=O)c2cccc3cccc1c23)NCc1ccc2c(c1)OCO2` the Potency was inconclusive: 14.6 µM [cytotoxic, partial curve].
For `COc1ccccc1OCC(=O)Nc1c(C(=O)c2ccc(F)cc2)oc2ccccc12`, the Potency was inconclusive: 29.1 µM [cytotoxic, single point].
For `Oc1cccc(NC(=S)N=Nc2c(O)[nH]c3ccc(Br)cc23)c1`, the Potency was inconclusive: 18.4 µM [cytotoxic, single point].
In the case of `COc1ccccc1S(=O)Cc1ccc(C(=O)NCc2ccccc2Cl)o1` (stereo not drawn), the “activity change, negative = cytotoxic” value is reported as inactive: 0.54%.
In the case of `CC(C)Cn1c(N)c(C(=O)COC(=O)[C@H](C)NC(=O)c2ccccc2Cl)c(=O)n(C)c1=O`, the “activity change, negative = cytotoxic” value is reported as inactive: -21.2%.
For `COc1cc(CC(=O)OCC(=O)c2c[nH]c3ccccc23)cc(OC)c1OC`, the Potency was inconclusive: 23.1 µM [cytotoxic, single point].
For `Cc1ccc(NC(=O)C2CCN(S(=O)(=O)c3cc(-c4noc(C)n4)ccc3C)CC2)c(C)c1`, the Potency was inconclusive: 11.6 µM [cytotoxic, partial curve].
With `Cc1cc(C2=NNC(=Nc3ccccc3)SC2)c(C)n1C` the “activity change, negative = cytotoxic” value was inactive: -0.766%.
In the case of `CCC1CCCCN1CCCNC(=O)Cn1cc2c(n1)-c1c(oc(C(=O)N3CCCC3)c1C)CC2` (stereo not drawn), the Potency is reported as inconclusive: 23.1 µM [rising, single point].
For `CN(C)CCCN=Cc1c(-c2ccccc2)[nH]n(-c2nc3ccccc3s2)c1=O`, the Potency was inconclusive: 29.1 µM [rising, single point].
With `COc1ccc(NC(=O)c2ccc(S(=O)(=O)N(C)c3ccccc3)cc2)cn1` the activity change, negative = cytotoxic was inconclusive: -39.7% [cytotoxic].
For `Cc1ccc2[nH]c(=O)c(COC(=O)C3CCCCC3)cc2c1`, the Potency was inconclusive: 29.1 µM [cytotoxic, single point].
With `Cc1ccc(Cc2c(C3CCCCC3)nc3ccc(Cl)cn23)cc1` the “activity change, negative = cytotoxic” value was inactive: 0.0302%.
With `O=C(c1cccs1)N(Cc1cc2ccccc2[nH]c1=O)c1ccccc1` the Potency was inconclusive: 16.4 µM [cytotoxic, single point].
In the case of `COc1ccc(/C=N/Nc2cc(C)nc3ccc(Br)cc23)cc1`, the Potency is reported as inconclusive: 32.6 µM [cytotoxic, single point].
With `CC(C)(C)c1ccc(S(=O)(=O)N2CCC(O)(c3ccc(Cl)cc3)CC2)cc1` the Potency was inconclusive: 29.1 µM [cytotoxic, single point].
With `CC(=O)SC1CC(=O)N(c2ccc(C(C)(C)C)cc2)C1=O` (stereo not drawn) the “activity change, negative = cytotoxic” value was inactive: 0.0344%.
With `COc1ccc(CNCC(O)(c2ccc(F)cc2)c2ccc(F)cc2)cc1OC` the Potency was inconclusive: 29.1 µM [cytotoxic, single point].
For `Cc1ccc(C2=NN(C(=O)CCl)C(c3ccco3)C2)o1` (stereo not drawn), the Potency was inconclusive: 29.1 µM [cytotoxic, single point].
For `Cc1ccc(OCCn2cc(C=O)c3ccccc32)cc1`, the “activity change, negative = cytotoxic” value was inactive: -17.6%.
With `COc1ccc(-c2nn(-c3ccccc3)cc2/C=N/N2C(=O)CSC2=S)cc1` the Potency was inconclusive: 29.1 µM [cytotoxic, single point].
In the case of `CCc1nc(SCC(=O)Nc2cc(OC)ccc2OC)c2c(C)c(C)sc2n1`, the “activity change, negative = cytotoxic” value is reported as inactive: 4.35%.
For `COC(=O)[C@@]12C[C@@H](CC(=O)NCc3cccs3)C(=O)N(Cc3cccc4ccccc34)C1=CCC(C)(C)C2`, the Potency was inconclusive: 20.6 µM [cytotoxic, single point].
With `Nc1[nH]nc2nc3ccccc3cc12` the Potency was inconclusive: 23.1 µM [cytotoxic, single point].
For `CC(=O)c1ccc(N2CCN(C(=O)c3cc4c(s3)CCCC4)CC2)cc1`, the Potency was inconclusive: 29.1 µM [cytotoxic, single point].
With `CCC(=O)N[C@@H]1C=C[C@@H](CC(=O)NCc2ccccc2F)O[C@@H]1CO` the “activity change, negative = cytotoxic” value was inactive: 5.27%.
In the case of `CCCCC(=NCCc1c(C)[nH]c2ccccc12)C1=C(O)CC(c2ccccc2)CC1=O` (stereo not drawn), the Potency is reported as active: 13 µM.
For `Cn1c(=O)c2c(ncn2Cc2ccc(Cl)c(Cl)c2)n(C)c1=O`, the Potency was inconclusive: 16.4 µM [cytotoxic, single point].
With `FC(F)C(F)(F)C(F)(F)C(F)(F)c1cc(-c2ccccc2)n[nH]1` the Potency was inconclusive: 18.4 µM [cytotoxic, single point].
With `C[C@H](CO)N1C[C@H](C)[C@@H](CN(C)Cc2ccc(-c3ccccc3)cc2)Oc2c(NS(=O)(=O)c3ccc(F)cc3)cccc2C1=O` the Potency was inconclusive: 11.6 µM [cytotoxic, partial curve, poor fit].
In the case of `CC(=O)Nc1cccc(-c2nc3ccccc3o2)c1`, the “activity change, negative = cytotoxic” value is reported as inactive: -1.62%.
With `COCCn1c(C)cc(C(=O)COc2cccnc2[N+](=O)[O-])c1C` the Potency was inconclusive: 29.1 µM [cytotoxic, single point].
For `Nc1ccc(C(=O)O)c(O)c1`, the Potency was inconclusive: 366 nM [rising, full curve] and inconclusive: 10.3 nM [rising, full curve].
In the case of `CC(C)NC(=O)COC(=O)c1cncc(Br)c1`, the Potency is reported as inconclusive: 0.0073 µM [cytotoxic, full curve].
For `COCCNc1nc2c(S(=O)(=O)c3cc(C)ccc3C)nnn2c2ccccc12`, the Potency was inconclusive: 18.4 µM [rising, partial curve, poor fit].
With `CCN(Cc1ccccc1)S(=O)(=O)c1ccc(C(=O)N2CCN(c3nc4ccccc4s3)CC2)cc1` the Potency was inconclusive: 20.6 µM [cytotoxic, single point].
